Data on 1 compound can be found in patent US20060121449A1, “Method for selection of compounds which inhibit clonal cell growth and use thereof” (priority 2002, published 2006).

This assay has as its system polyoma virus transformed BHK21/c13 cells, line S100T1. Briefly: Collocation inhibition test: clonal growth in sparsely and densely seeded areas of a cell density gradient of S100T1 cells in soft agar (Exp 13, 17, 19-26).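 Also: soft agar cultures in 24-well plates with a cell density gradient in the top layer, compounds applied from DMSO stocks, clonal growth scored in sparse versus dense areas; grades rise with clonal growth and minus or plus-minus means none.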 The following applies: preliminary results, Exp 13-18, 21-26.

In the case of `COc1ccc2cc([C@H](C)C(=O)O)ccc2c1` [Naproxen], the “Clonal growth, L low density area of cell gradient, High” value (high concentration) was “(+)”. In addition, where the note is “low concentration”, the “Clonal growth, L low density area of cell gradient, Low” value is recorded as “(+”.
